In one test the target is TBD-1 wt. Kind of test: competition ELISA: peptide titrated against a constant concentration of TBD-1 binding to plate-bound biotinylated TROP2.
For the next test, the target named is TBD-6 (LC I93A). The experiment in a line: competition ELISA: peptide titrated against a constant concentration of TBD-6 binding to plate-bound biotinylated TROP2.

No constants are given. Whether binding was seen depends on the method and setting.

VEICKQWFYTVCLS (biotinylated in the binding ELISA (site not stated)) [Peptide-58]: the binding result with TBD-1 wt and in the test with TBD-6 (LC I93A) was “no binding (tested: 100 uM)” throughout.
Regarding VEFCKQWTWFGCMT (biotinylated in the binding ELISA (site not stated)) [Peptide-44], the binding entry with TBD-1 wt and with TBD-6 (LC I93A) was “no binding (tested: 100 uM)” in each case.
